Measurements taken from the supplement of paper PMC10689618.
The other results are listed elsewhere or left out. Many values rest on one well or one pass, so single values are uncertain.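 Primary human fetal astrocytes engulfed labelled rat cortical synaptosomes, measured as a red/green ratio corrected for calcein live-cell signal and scaled to the plate median. Toxicity meant calcein falling over 30%; decreased phagocytosis meant below 70% of median above 5 µM.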

Experiments:
[1] = test system: Human fetal astrocytes; experiment: loss of total cells relative to no-compound high-control median (toxicity); higher = more toxic (fewer cells); conditions: 24 h
[2] = test system: Human fetal astrocytes; experiment: synaptosome phagocytosis (pHrodo/calcein intensity ratio) relative to plate median of data wells; higher = more phagocytosis; conditions: 24 h

Compound | loss of total cells ([1]; 1.39 µM) [%] | loss of total cells ([1]; 2.78 µM) [%] | loss of total cells ([1]; 5.56 µM) [%] | loss of total cells ([1]; 11.11 µM) [%] | loss of total cells ([1]; 22.22 µM) [%] | synaptosome phagocytosis ([2]; 1.39 µM) [%] | synaptosome phagocytosis ([2]; 2.78 µM) [%] | synaptosome phagocytosis ([2]; 5.56 µM) [%] | synaptosome phagocytosis ([2]; 11.11 µM) [%] | synaptosome phagocytosis ([2]; 22.22 µM) [%]
CCCCCCCCCCC[C@@H](C[C@@H]1OC(=O)[C@H]1CCCCCC)OC(=O)[C@H](CC(C)C)NC=O | -21 | -38.1 | 0.6 | 14.8 | -0.3 | 126 | 108 | 133 | 120 | 130
CC(C)NCC(O)c1cc(O)cc(O)c1 (stereo not given) | 18.3 | -3.4 | 8.7 | -10.2 | 14.2 | 88.9 | 115 | 88.9 | 85.8 | 89.5
N=c1ccn2c(n1)O[C@H]1[C@H](O)[C@@H](CO)O[C@H]12 | 20.6 | 19.1 | 11.6 | 19.7 | 14.4 | 106 | 97.6 | 109 | 140 | 77.3
COC1=C(OC)C(=O)C(C/C=C(\C)CC/C=C(\C)CC/C=C(\C)CC/C=C(\C)CC/C=C(\C)CC/C=C(\C)CC/C=C(\C)CC/C=C(\C)CC/C=C(\C)CCC=C(C)C)=C(C)C1=O | -25.4 | 0.4 | -5.9 | 8.8 | 8.9 | 94 | 78.4 | 102 | 102 | 126
CC(Cc1cccc(C(F)(F)F)c1)NCCOC(=O)c1ccccc1 (stereo not given) | 9.7 | 22 | 8.7 | -13 | -2.3 | 109 | 93.2 | 65.7 | 112 | 98.1
CC(=O)NC1C(O)CC(O)(C(=O)O)OC1C(O)C(O)CO (stereo not given) | -21.4 | -2.7 | 29.8 | 46.5 | -9.3 | 88 | 103 | 114 | 162 | 101
C=CC1=C(C)/C(=C/c2[nH]c(Cc3[nH]c(/C=C4\NC(=O)C(C)=C4C=C)c(C)c3CCC(=O)O)c(CCC(=O)O)c2C)NC1=O | -22.1 | -4 | 3.7 | 0 | 14.8 | 150 | 141 | 114 | 121 | 114
COC1=CC(=O)C(O)=C/C1=C\C=C\c1ccccc1 | -12.7 | 10 | 42.7 | 48.4 | 37.4 | 91.3 | 93.9 | 98.4 | 12.6 | 25.9
CN(C)c1ccc(O)c2c1C[C@H]1C[C@H]3[C@H](N(C)C)C(=O)C(C(N)=O)=C(O)[C@@]3(O)C(=O)C1=C2O | 0 | -4.6 | 5.1 | 23.4 | 8.5 | 114 | 109 | 107 | 87.4 | 110
CC(=O)OCC(=O)[C@@]12OC3(CCCC3)O[C@@H]1C[C@H]1[C@@H]3CCC4=CC(=O)C=C[C@]4(C)[C@@]3(F)[C@@H](O)C[C@@]12C | -38.7 | -15.1 | 3.7 | 16.1 | -0.3 | 89.3 | 105 | 80 | 98.7 | 110
CC1(C)O[C@@H]2C[C@H]3[C@@H]4C[C@H](F)C5=CC(=O)CC[C@]5(C)[C@H]4[C@@H](O)C[C@]3(C)[C@]2(C(=O)CO)O1 | 0 | 5.8 | 0.9 | 1.6 | -0.6 | 78.4 | 86.3 | 88.7 | 65.6 | 126
Nc1ccc(C(=O)NCC(=O)O)cc1 | -19.4 | -25.4 | 8.7 | 8.2 | 7.2 | 134 | 117 | 132 | 117 | 107
COc1ccc(-c2cc(=O)c3c(O)c(OC)c(O[C@@H]4O[C@H](CO[C@@H]5O[C@@H](C)[C@H](O)[C@@H](O)[C@H]5O)[C@@H](O)[C@H](O)[C@H]4O)cc3o2)cc1 | -5.4 | 8.6 | -6.1 | -22.6 | -5.6 | 126 | 124 | 98.9 | 108 | 151
CN(C/C=C/C#CC(C)(C)C)Cc1cccc2ccccc12 | -20.7 | -8.2 | 3.9 | 2.3 | 51.6 | 111 | 102 | 87 | 129 | 47
NCC(=O)CCC(=O)O | -15.8 | -20.4 | 14.1 | -21.1 | 15.3 | 95.7 | 83.1 | 89.6 | 120 | 93.9
COC(=O)Nc1nc2cc([S+]([O-])c3ccccc3)ccc2[nH]1 (stereo not given) | -25 | 0.8 | -1.2 | 31.1 | -11.5 | 109 | 114 | 98.8 | 124 | 106
COC(=O)C[C@H]1C(C)(C)[C@@H](O)[C@@H]2CC3=C4C=C(OC)O[C@@H](c5ccoc5)[C@]4(C)CCC3[C@@]1(C)C2=O (stereo partly drawn) [3-DEOXO-3beta-HYDROXYMEXICANOLIDE 16-ENOL ETHER] | 3.3 | 15.3 | 26.7 | -1.9 | 15.2 | 103 | 124 | 121 | 92 | 117
O=C1CN(/N=C/c2ccc([N+](=O)[O-])o2)C(=O)N1 | -10.8 | -9.5 | 9.3 | 7.8 | 14.2 | 91.1 | 99.8 | 96.4 | 130 | 84.2
CCCCOc1cc(C(=O)NCCN(CC)CC)c2ccccc2n1 | 11.6 | -26.8 | -4.2 | 21 | 12.5 | 79.1 | 101 | 102 | 87.2 | 70.5
Cc1ccc2c(c1)CC[C@H]1CC(=O)CC[C@]21C | -12 | 0 | 37.4 | -14.2 | 14.4 | 105 | 94.9 | 139 | 86.1 | 132
O=C1NS(=O)(=O)c2ccccc21 | -16.6 | -5.2 | 12.9 | 3.1 | -12.5 | 74.4 | 82.5 | 108 | 95.1 | 120

Two compounds from above, reduced to loss of total cells ([1]; 11.11 µM) [%]:
Compound | loss of total cells ([1]; 11.11 µM) [%]
COC(=O)C[C@H]1C(C)(C)[C@@H](O)[C@@H]2CC3=C4C=C(OC)O[C@@H](c5ccoc5)[C@]4(C)CCC3[C@@]1(C)C2=O (stereo partly drawn) [3-DEOXO-3beta-HYDROXYMEXICANOLIDE 16-ENOL ETHER] | -1.9
O=C1CN(/N=C/c2ccc([N+](=O)[O-])o2)C(=O)N1 | 7.8

Continued.

Compound | loss of total cells ([1]; 1.39 µM) [%] | loss of total cells ([1]; 2.78 µM) [%] | loss of total cells ([1]; 5.56 µM) [%] | loss of total cells ([1]; 11.11 µM) [%] | loss of total cells ([1]; 22.22 µM) [%] | synaptosome phagocytosis ([2]; 1.39 µM) [%] | synaptosome phagocytosis ([2]; 2.78 µM) [%] | synaptosome phagocytosis ([2]; 5.56 µM) [%] | synaptosome phagocytosis ([2]; 11.11 µM) [%] | synaptosome phagocytosis ([2]; 22.22 µM) [%]
Oc1c(Cl)cc(Cl)c2cccnc12 | -25.8 | 18.3 | 3.7 | 50.2 | 27.1 | 91.5 | 93.7 | 55.6 | 72.5 | 33.4
CC(=O)CC(c1ccccc1)c1c(O)c2ccccc2oc1=O (stereo not given) | 5 | -11.2 | -3.5 | 3.7 | -10 | 121 | 120 | 120 | 102 | 89.9
Nc1ccc(S(=O)(=O)Nc2ccccn2)cc1 | 8.6 | -26.1 | -14.6 | -0.3 | -19.8 | 126 | 131 | 80.5 | 113 | 101
CC1=Nc2ccc(Cl)cc2S(=O)(=O)N1 [Diazoxide] | 8.3 | 7.3 | -20.6 | 18.1 | 17.4 | 138 | 101 | 97.3 | 106 | 104
CCOC(=O)[C@H](CCc1ccccc1)N[C@H]1CCc2ccccc2N(CC(=O)O)C1=O | -15.8 | 6.4 | 2.1 | 4.7 | 61.8 | 97.7 | 95.2 | 100 | 69.6 | 35.7
C/C(=C\CO)CC[C@H](C)CCC[C@H](C)CCCC(C)C | 4.9 | 11.9 | 13.9 | 25.7 | 8.1 | 124 | 121 | 123 | 93.6 | 90
Cn1cnc([N+](=O)[O-])c1Sc1ncnc2[nH]cnc12 | 2.5 | -14.3 | 14.1 | -14.8 | 26.1 | 102 | 113 | 123 | 122 | 123
CC(=O)Oc1cccc(O)c1 | -28.2 | -27 | -7.5 | -14.1 | 4.7 | 76.1 | 83.1 | 68 | 72.2 | 109
Clc1ccccc1CN1CCc2sccc2C1 | -26.6 | -7.9 | 6.2 | 37 | 4.7 | 79.7 | 93 | 110 | 110 | 94.7
Cc1c(NC(C)C)c(=O)n(-c2ccccc2)n1C | 8.3 | 1.8 | 10.1 | -5.4 | 4.5 | 119 | 139 | 103 | 127 | 112
NC[C@@H]1O[C@@H](O[C@H]2[C@H](O)[C@@H](O[C@H]3O[C@H](CO)[C@@H](O)[C@H](N)[C@H]3O)[C@H](N)C[C@@H]2N)[C@@H](O)[C@H](O)[C@H]1O | -26.4 | -1 | 2.8 | -6.6 | 14.9 | 110 | 115 | 95.9 | 118 | 97.5
COc1cc2ccc(=O)oc2c(O)c1O | -33.6 | 3.2 | -19 | 14.2 | 18.5 | 107 | 100 | 93.9 | 92.8 | 92.7
O=c1ccc2ccccc2o1 | -14.1 | 0.3 | 0.9 | -8.6 | 18.7 | 111 | 71.4 | 107 | 120 | 112
Cc1cc(O)cc(=O)o1 | 10.5 | -6.1 | 15.2 | 3.8 | -6.1 | 107 | 98.6 | 122 | 100 | 107
CC1=C(/C=C/C(C)=C/C=C/C(C)=C/C=C/C=C(C)/C=C/C=C(C)/C=C/C2=C(C)C(=O)[C@@H](O)CC2(C)C)C(C)(C)C[C@H](O)C1=O | -35.2 | -7.6 | -15.4 | -10.8 | -7.4 | 80.2 | 112 | 106 | 87.5 | 126
O=c1cc(-c2ccc(O)c(O)c2)oc2cc(O)cc(O)c12 | -11.5 | 14.1 | 12.5 | 31.8 | 25.2 | 96.1 | 100 | 103 | 121 | 109
CO[C@@]12[C@H](COC(N)=O)C3=C(C(=O)C(C)=C(N)C3=O)N1C[C@@H]1N[C@@H]12 | -29 | 8.8 | 0.3 | -7.8 | 6.8 | 103 | 94.4 | 104 | 107 | 85
CCN(CC)Cc1cc(Nc2ccnc3cc(Cl)ccc23)ccc1O | 5.8 | -22.3 | 11.7 | 3.1 | 24.4 | 85.3 | 79.6 | 87 | 86.2 | 76.1
CCN(CC)CCOC(=O)C(c1ccccc1)C1CCCCC1 (stereo not given) | 4 | 19.1 | 21 | 10.5 | 10.6 | 50.8 | 90.5 | 93.9 | 98.6 | 73.1
COc1ccc(-c2cc(=O)c3c(OC)cc(OC)cc3o2)cc1 | -26.2 | -6.1 | 7.3 | 4.1 | 5.2 | 77.7 | 88.4 | 80 | 93.1 | 87.2
COc1cc2c3cc1Oc1c(OC)c(OC)cc4c1[C@@H](Cc1ccc(O)c(c1)Oc1ccc(cc1)C[C@@H]3N(C)CC2)N(C)CC4 | 6.1 | 18.4 | 18.8 | 7.9 | 22 | 94.4 | 75.6 | 72.8 | 87.2 | 99.1
